Results are given in words; binding and its absence hold for the method and conditions named. Binding calls can cover weak binding; strength is not graded here.
Target: T1, Spigot (C. elegans) (UniProt Q4W5H0)
T1 sequence: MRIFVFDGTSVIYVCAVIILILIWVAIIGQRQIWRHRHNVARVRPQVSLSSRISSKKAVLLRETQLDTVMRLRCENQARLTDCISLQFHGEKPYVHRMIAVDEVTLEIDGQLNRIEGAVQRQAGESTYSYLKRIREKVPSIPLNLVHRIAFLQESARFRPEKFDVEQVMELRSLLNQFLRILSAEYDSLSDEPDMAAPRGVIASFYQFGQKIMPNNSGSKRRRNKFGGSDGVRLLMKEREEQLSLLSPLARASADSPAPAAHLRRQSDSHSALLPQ
Assay: cryo-EM structure

binding: binds weakly
Substance: Intake (C. elegans)
